{
  "source": "patent US7135497B1",
  "about": "“Treating neural conditions resulting from spinal cord contusions and other causes” (New York Medical College, priority 2000, dated 2006)",
  "experiment": "Body weight of spinal cord contused rats",
  "type": "in vivo, rat",
  "conditions": "6 weeks after contusion, clenbuterol 9 mg/L in drinking water, mean±SE",
  "data": [
    {"smiles": "CC(C)(C)NCC(O)c1cc(Cl)c(N)c(Cl)c1", "note": "(stereo not shown) [clenbuterol]", "values": [
      {"measurement": "Final Body Wt", "setting": "6.25 mm weight drop", "result": "340 ± 11", "unit": "gm"},
      {"measurement": "Final Body Wt", "setting": "12.5 mm weight drop", "result": "331 ± 6", "unit": "gm"},
      {"measurement": "Final Body Wt", "setting": "25 mm weight drop", "result": "303 ± 8", "unit": "gm"},
      {"measurement": "Final Body Wt", "setting": "50 mm weight drop", "result": "290 ± 8", "unit": "gm"}
    ]}
  ]
}
